Assay results reported in PMC5996148.
Several values for one entry are separate records, joined by “and”; a condition that tells them apart may be missing. Equal entries are not always repeated. The list shows a part of the results. For some of these results: The source does not settle which construct or isoform was used.

Protein sequences, listed by entry. Tags and fused reporters are not part of them. Lines headed by an entry give the natural chain unless they say otherwise; changes in a name come on top.
UniProt Q15527: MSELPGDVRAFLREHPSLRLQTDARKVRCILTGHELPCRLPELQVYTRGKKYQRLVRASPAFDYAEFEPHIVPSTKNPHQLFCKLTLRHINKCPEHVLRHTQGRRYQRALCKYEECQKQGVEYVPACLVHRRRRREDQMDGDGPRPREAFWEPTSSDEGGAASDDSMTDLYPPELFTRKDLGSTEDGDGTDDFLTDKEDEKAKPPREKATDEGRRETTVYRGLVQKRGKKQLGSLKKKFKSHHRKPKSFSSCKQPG

Columns and labels:
Assay in all cases: protein microarray (ProtoArray v5.0), streptavidin-Alexa Fluor 647
Conditions in all cases: 3'-biotin; 20 mM Tris (pH 7.5), 5 mM MgCl2, 100 mM KCl, 0.1% Tween-20, A/T-rich and random oligonucleotide blockers; temperature not stated; high values mean tight binding
STX7 (human) = system: STX7 (human)
STYX (human) = system: STYX (human)
SULF1 (human) = system: SULF1 (human)
SULT2B1 (human) = system: SULT2B1 (human)
SURF2 = SURF2 (UniProt Q15527)
SURF4 (human) = system: SURF4 (human)
SURF5 (human) = system: SURF5 (human)
SUSD4 (human) = system: SUSD4 (human)
[1] = system: SWI/SNF-related matrix-associated actin-dependent regulator of chromatin subfamily D member 2 (human)
SYCE1 (human) = system: SYCE1 (human)

Question: How did the binding signal (STX7 (human)) turn out when “GGGGACAGGGGTATGGGGAGGGG [G4-3 biotinylated (CtG)]” was run?
Answer: -0.309 z-score

Question: What about the binding signal (STYX (human)) of the same sequence?
Answer: -0.316 z-score

Question: And the binding signal (SULF1 (human))?
Answer: -0.283 z-score

Question: And the binding signal (SULT2B1 (human))?
Answer: -0.335 z-score

Question: What about the binding signal (SURF2) of the same sequence?
Answer: 4.37 z-score

Question: What about the binding signal (SURF4 (human)) of the same sequence?
Answer: -0.336 z-score

Question: What about the binding signal (SURF5 (human)) of the same sequence?
Answer: -0.331 z-score

Question: What about the binding signal (SUSD4 (human)) of the same sequence?
Answer: -0.319 z-score

Question: And the binding signal [1]?
Answer: -0.336 z-score

Question: What about the binding signal (SYCE1 (human)) of the same sequence?
Answer: -0.323 z-score and -0.316 z-score
